Not every detail of the peptide structures is certain; ends, links or a residue may be inferred. Ends that are not written are not given here.
System: Phytophthora infestans
Type: in vivo

For RNTAQIP [Peptide V2, RNTAQIP], the “protection against infection (in words), experiment repeated one week later” value (400 uM, detached potato leaves) was “some protection”, the “average score (1-9 scale of late blight infection)” value (6 days after Phytophthora infection, 50 sporangia/ul final, 4 drops of 10 ul per leaflet, 20 C, peptides 400 uM final, Mancozeb product diluted 1:1000, 9 = no symptoms, water positive control 6.56) was 7.52 and the “protection (in words), further repeat, first time” value (detached potato leaves) was “not”. The “protection (in words), further repeat, second time” value (detached potato leaves) was “some protection” and the “overall conclusion on efficacy” value (over all detached leaf experiments) was “efficacious with more variability”.

From patent publication US20260209272A1 (priority 2022, published 2026)
